For the data set, the system named is mouse heart. Briefly: Cardiac specific human ApoO transgenic mice (ApoO-Tg). Format: in vivo. The source says: After ethical committee approval, all patients in this study gave written consent for sample collection and molecular analysis prior to inclusion. Patients were carefully selected by physicians from the Department of Cardiology, Toulouse University Hospital, prior to coronary by-pass surgery. Bioinformatics. Microarray expression data from human heart samples were downloaded from the GEO repository (GSE1145). This series consisted of 107 myocardial samples collected from patients undergoing cardiac transplantation whose failure arises from different etiologies (e.g. idiopathic dilated cardiomyopathy, ischemic cardiomyopathy, valvular cardiomyopathy, and hypertrophic cardiomyopathy) and from “normal” organ donors whose hearts cannot be used for transplants. Arrays were intensity normalized and hierarchical clustering (average group linkage, Pearson correlation, threshold r=0.8) was applied to identify groups of co-expressed genes. ApoO expression levels were plotted for the 107 human hearts tested and used to define relevant molecular pathways using both Toppgene and Ingenuity Pathway Analysis (Ingenuity systems, Redwood City, Calif., USA). ApoO subcellular localization was predicted using Mitopred, mitoprot and YLoc. Animals: All animal Studies followed the INSERM Institute Animal Facility guidelines and were approved by the animal care committees of the INSERM I2MC UMR 1048. All animal procedures were performed according to the guidelines of the French Ministry of Agriculture. Animals were housed at the Toulouse I2MC animal facility in a room lit 12 h per day (6 AM-6 PM) at an ambient temperature of 22+/−1° C. […] All ApoO sequences within the expression vectors were verified by DNA double strand sequencing using ABI PRISM®BigDye™ Terminator version 3.1 Ready reaction cycle sequencing kit (Life Technologies SAS, Villebon sur Yvette) and loaded on an ABI 3130XL DNA sequencing instrument (Life Technologies SAS, Villebon sur Yvette). […]

The record followed here is patent US10272135B2, “Apolipoprotein O and fragments thereof for inducing apoptosis in a cancerous cell” (INSERM (INSTITUT NATIONAL DE LA SANTÉ ET DE LA RECHERCHE …, priority 2014, dated 2019).

B1: ApoO: 198-amino acid apolipoprotein, SEQ ID NO: 1; tested by overexpression from expression vectors or transgene (protein, listed as Homo sapiens)
chain: MFKVIQRSVGPASLSLLTFKVYAAPKKDSPPKNSVKVDELSLYSVPEGQSKYVEEARSQLEESISQLRHYCEPYTTWCQETYSQTKPKMQSLVQWGLDSYDYLQNAPPGFFPRLGVIGFAGLIGLLLARGSKIKKLVYPPGFMGLAASLYYPQQAIVFAQVSGERLYDWGLRGYIVIEDLWKENFQKPGNVKNSPGTK
On to B1, for which the PR interval entry (cardiac specific ApoO-Tg mice, ECG) was “lengthening”. In addition, under “cardiac specific ApoO-Tg mice, echocardiography”, the “fractional shortening and ejection fractions” value was “reduction”. In addition, the ventricular function result (hearts constitutively expressing human ApoO at less than 2 times endogenous) was “depressed ventricular function”.
